Results are given in words; binding and its absence hold for the method and conditions named. Some entries that bind do so weakly or less than the wild type. For part of these data: Where a sequence is shown, tags or fusion partners need not be part of it. Blank lines part the entries; values can stand above or below the binder they belong to.
How the values were obtained:
[1] = target: human CD45 (human) (UniProt P08575); assay: flow cytometry on activated human CD8 T cells
[2] = target: human CD45 (human) (UniProt P08575); assay: soluble competitor in pulse bioassay on activated human CD8 T cells
[3] = target: human CD45 (human) (UniProt P08575); assay: flow cytometry on T cells, detected through the hexahistidine tag

Protein sequences, listed by entry. Tags and fused reporters are not part of them. Residues count along the entry.
UniProt P08575, residues 26-1306: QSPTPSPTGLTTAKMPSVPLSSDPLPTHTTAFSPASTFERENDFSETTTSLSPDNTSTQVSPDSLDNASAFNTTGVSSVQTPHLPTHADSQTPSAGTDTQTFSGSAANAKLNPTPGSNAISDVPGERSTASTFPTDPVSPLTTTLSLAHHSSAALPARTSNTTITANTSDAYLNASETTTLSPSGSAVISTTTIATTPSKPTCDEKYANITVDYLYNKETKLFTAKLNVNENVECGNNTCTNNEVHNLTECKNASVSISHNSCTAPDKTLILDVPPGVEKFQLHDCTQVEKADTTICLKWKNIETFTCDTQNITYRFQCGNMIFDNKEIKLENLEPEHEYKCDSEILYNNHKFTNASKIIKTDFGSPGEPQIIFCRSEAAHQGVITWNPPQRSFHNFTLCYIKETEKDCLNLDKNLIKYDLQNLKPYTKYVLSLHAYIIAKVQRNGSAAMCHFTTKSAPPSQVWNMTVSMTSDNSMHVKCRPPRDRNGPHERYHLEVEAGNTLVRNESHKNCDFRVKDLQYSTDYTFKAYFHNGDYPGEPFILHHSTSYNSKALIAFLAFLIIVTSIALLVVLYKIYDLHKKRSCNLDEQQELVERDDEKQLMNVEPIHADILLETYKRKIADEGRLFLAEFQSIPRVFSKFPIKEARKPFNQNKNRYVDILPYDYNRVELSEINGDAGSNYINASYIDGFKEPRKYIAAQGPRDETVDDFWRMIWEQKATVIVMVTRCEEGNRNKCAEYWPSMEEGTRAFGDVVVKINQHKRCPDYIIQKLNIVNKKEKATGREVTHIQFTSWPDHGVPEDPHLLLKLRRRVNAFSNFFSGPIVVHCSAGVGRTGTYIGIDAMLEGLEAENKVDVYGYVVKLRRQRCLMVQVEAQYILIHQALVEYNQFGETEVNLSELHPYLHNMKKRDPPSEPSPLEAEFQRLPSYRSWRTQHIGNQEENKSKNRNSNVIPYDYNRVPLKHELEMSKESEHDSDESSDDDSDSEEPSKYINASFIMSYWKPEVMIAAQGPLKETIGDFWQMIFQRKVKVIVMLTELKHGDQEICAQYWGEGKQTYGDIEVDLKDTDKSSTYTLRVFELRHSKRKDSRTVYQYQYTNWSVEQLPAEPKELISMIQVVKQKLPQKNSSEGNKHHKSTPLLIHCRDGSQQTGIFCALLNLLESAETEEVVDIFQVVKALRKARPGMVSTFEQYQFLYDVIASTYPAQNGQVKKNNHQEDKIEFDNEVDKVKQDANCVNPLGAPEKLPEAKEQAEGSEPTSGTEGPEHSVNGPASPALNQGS

binding [1]: binds
B2: chBC8 chimeric IgG (antibody, V domains shown)
VH: QVQLVESGGGLVQPGGSLKLSCAASGFDFSRYWMSWVRQAPGKGLEWIGEINPTSSTINFTPSLKDKVFISRDNAKNTLYLQMSKVRSEDTALYYCARGNYYRYGDAMDYWGQGTSVTVSS
VL: DIVLTQSPASLAVSLGQRATISCRASKSVSTSGYSYLHWYQQKPGQPPKLLIYLASNLESGVPARFSGSGSGTDFTLNIHPVEEEDAATYYCQHSRELPFTFGSGTKLEIKR

binding [1]: binds
B4: hBC8(23) humanized BC8 antibody (IgG) (antibody, V domains shown)
VH: EVQLVESGGGLVQPGGSLRLSCAASGFDFSRYWMSWVRQAPGKGLEWIGEINPTSSTINFADSVKGRFTISRDNAKNSLYLQMNSVRDEDTAVYYCARGNYYRYGDAMDYWGQGTLVTVSS
VL: EIVLTQSPATLSLSLGERATISCRASKSVSTSGYSYLHWYQQKPGQAPKLLIYLASNRATGVPARFSGSGPGTDFTLTISSLEPEDFATYYCQHSRELPFTFGQGTKLEIK

binding [3]: binds
B5: monomeric BC8scFv (hexahistidine tag) (scFv, not shown: small tags and cut ends)
scFv: QVQLVESGGGLVQPGGSLKLSCAASGFDFSRYWMSWVRQAPGKGLEWIGEINPTSSTINFTPSLKDKVFISRDNAKNTLYLQMSKVRSEDTALYYCARGNYYRYGDAMDYWGQGTSVTVSSGGGGSGGGGSGGGGSDIVLTQSPASLAVSLGQRATISCRASKSVSTSGYSYLHWYQQKPGQPPKLLIYLASNLESGVPARFSGSGSGTDFTLNIHPVEEEDAATYYCQHSRELPFTFGSGTKLEIK

Second part, the binder before the results:

B1: ch4B2 chimeric IgG (antibody, V domains shown)
VH: QVQLQQSGAELARPGASVKMSCKASGYTFTSYTMQWVKQRPGQGLEWIGYINPSSGYIKYNQKFKDKVTLTADKSSTTAYMQLSRLTSEDSAVYYCARRGSYFFDFWGQGTSVTVSS
VL: DIVITQDELSNPVTSGESVSISCRSSKSLLYKDGKTYLNWFLQRPGQSPQLLIYLMSTRASGVSDRFSGSGSGTDFTLEISRVKAEDVGVYYCQQLVEYPFTFGGGTKLEVK
binding [1]: binds

B3: BC8 parental mouse monoclonal antibody (antibody, V domains shown)
VH: B2 VH
VL: DIVLTQSPASLAVSLGQRATISCRASKSVSTSGYSYLHWYQQKPGQPPKLLIYLASNLESGVPARFSGSGSGTDFTLNIHPVEEEDAATYYCQHSRELPFTFGSGTKLEIK
binding [2]: binds

B6: ch9.4 chimeric IgG (antibody, V domains shown)
VH: QVQLQQLGAELARPGASVKMSCKASGYTFTSYSIQWVKQRPGQGLEWIGYINPSSGYIKYNQHFRDRATLTADRSSSTAYMQLSSLTSEDSAVYYCARGNSGSFDYWGQGTTLTVSS
VL: DIVMTQAAPSVPVTPGESLSISCRSSKSLLHSSGITYLYWFLQRPGQSPQLLIYRMSNLASGVPDRFSGSGSGTAFTLRISRVEAEDVGVYYCMQHLEYPFTFGGGTKLEIK
binding [1]: binds
